Assay results: PubChem BioAssay AID248 (DTP/NCI, 2004)
The list shows only some results of the screen, not a fair sample: it gathers tests that were run many times, whatever their T/C, doses with no T/C, and many T/C values between a quarter and a half above the control. Further doses and runs are listed elsewhere. T/C: endpoint of the treated group in % of that of the vehicle group. Some doses have a count of surviving animals in place of a T/C: the source files T/C as zero there, which appears to mark a toxic dose or a test without result, not a measured value. Some survivor counts are full or nearly so, which does not show that the dose was tolerated: the source hardly ever lists a survival T/C far under the control, and the zero likely stands for such cases as well. Survivors were counted at the toxicity check, usually on the fifth day, unless a day is given; later deaths do not show. Schedules are NCI's codes, taken here to give the interval after Q, in days (D) or hours (H), and the number of doses after X. Some schedules carry Z or #; the key to these is not given. Where survival is the endpoint, the PubChem record calls one and a half times the control and up active, and a quarter to a half above the control has no call in these data; cut-offs in other NCI protocols can differ. Some doses were run more than once; the values are given in rising order. Some T/C values are followed by the survivors on the day toxicity was checked, most often the fifth; without a count, all were alive then.

Tested on: L1210 leukemia ip in BDF1 mice, survival T/C
Test: NCI In Vivo Anticancer Drug Screen. Data for tumor model L1210 Leukemia (intraperitoneal) in B6D2F1 (BDF1) mice
Details: T/C endpoint: mean survival time, higher T/C = longer survival
[1] = dose: 400.0 mg/kg/injection, schedule: Q04DX002 (ip), vehicle: saline with Tween-80
[2] = dose: 100.0 mg/kg/injection, schedule: Q01DX009 (ip), vehicle: Klucel (hydroxypropylcellulose) (HPC)
[3] = dose: 200.0 mg/kg/injection, schedule: Q01DX001 (ip), vehicle: Klucel (hydroxypropylcellulose) (HPC)
[4] = dose: 400.0 mg/kg/injection, schedule: Q01DX001 (ip), vehicle: Klucel (hydroxypropylcellulose) (HPC)
[5] = dose: 200.0 mg/kg/injection, schedule: Q01DX001 (ip), vehicle: saline
[6] = dose: 400.0 mg/kg/injection, schedule: Q01DX001 (ip), vehicle: saline
[7] = dose: 400.0 mg/kg/injection, schedule: Q01DX001 (ip), vehicle: carboxymethylcellulose (CMC)
[8] = dose: 400.0 mg/kg/injection, schedule: Q04DX003 (ip), vehicle: saline
[9] = dose: 400.0 mg/kg/injection, schedule: Q04DX003 (ip), vehicle: Klucel (hydroxypropylcellulose) (HPC)

COCCNP(=O)(OC)OC
survivor count (dose: 400.0 mg/kg/injection, schedule: Q01DX001 (ip), vehicle: acetone): 6 of 6

C#CC(OC(=O)NC(C(=O)OC)C(C)C)(c1ccccc1)c1ccccc1 (stereo unspecified)
T/C (dose: 200.0 mg/kg/injection, schedule: Q04DX002 (ip), vehicle: saline with Tween-80): 125 % of control
T/C [1]: 134 % of control
survivor count [1]: 3 of 3

CCN(CC)CCCC(C)Nc1cc(C)nc(/N=C(\N)Nc2ccc(Cl)c(Cl)c2)n1 (stereo unspecified)
survivor count [2]: 0 of 6
survivor count [3]: 3 of 6
survivor count [4]: 0 of 6

O=C(OCc1ccccc1CN1CCCC1)c1ccccc1
survivor count [3]: 2 of 6
survivor count [4]: 2 of 6

CCSCC1OC(n2cnc3c(N)nc(F)nc32)C(O)C1O (stereo unspecified)
survivor count [2]: 6 of 6
survivor count [4]: 0 of 6

CC/C=N\NC
survivor count (dose: 50.0 mg/kg/injection, schedule: Q01DX001 (ip), vehicle: saline): 2 of 4
survivor count (dose: 80.0 mg/kg/injection, schedule: Q01DX001 (ip), vehicle: saline): 0 of 6
survivor count (dose: 100.0 mg/kg/injection, schedule: Q01DX001 (ip), vehicle: saline): 0 of 4
survivor count [5]: 0 of 4
survivor count [6]: 0 of 4

CC1=CC23C(COC(=O)C24CO4)C(C(=O)O)=CC3C1C (stereo unspecified)
survivor count (dose: 20.0 mg/kg/injection, schedule: Q01DX001 (ip), vehicle: saline): 2 of 6
survivor count (dose: 40.0 mg/kg/injection, schedule: Q01DX001 (ip), vehicle: saline): 0 of 6
survivor count (dose: 75.0 mg/kg/injection, schedule: Q01DX001 (ip), vehicle: saline): 0 of 6
survivor count (dose: 150.0 mg/kg/injection, schedule: Q01DX001 (ip), vehicle: saline): 0 of 6
survivor count (dose: 300.0 mg/kg/injection, schedule: Q01DX001 (ip), vehicle: saline): 0 of 6

CC[C@@](O)(C(=O)NC)c1cc2n(c(=O)c1CO)Cc1cc3ccccc3nc1-2
T/C (dose: 1.0 mg/kg/injection, schedule: Q01DX015 (ip), vehicle: saline): 134 % of control
T/C (dose: 1.5 mg/kg/injection, schedule: Q01DX015 (ip), vehicle: saline): 134 % of control
T/C (dose: 3.5 mg/kg/injection, schedule: Q01DX015 (ip), vehicle: saline): 126 % of control
T/C (dose: 8.0 mg/kg/injection, schedule: Q01DX001 (ip), vehicle: saline): 139 % of control
survivor count (dose: 8.0 mg/kg/injection, schedule: Q01DX015 (ip), vehicle: saline): 6 of 6
survivor count (dose: 12.0 mg/kg/injection, schedule: Q01DX015 (ip), vehicle: saline): 6 of 6
T/C (dose: 16.0 mg/kg/injection, schedule: Q01DX001 (ip), vehicle: saline): 131 % of control
T/C (dose: 32.0 mg/kg/injection, schedule: Q01DX001 (ip), vehicle: saline): 133 % of control [3 of 4 alive]

COc1cc(N(CCCl)CCCl)c(OC)cc1C=Nc1cccc(F)c1
T/C (dose: 45.0 mg/kg/injection, schedule: Q01DX001 (ip), vehicle: Klucel (hydroxypropylcellulose) (HPC)): 128 % of control
T/C (dose: 45.0 mg/kg/injection, schedule: Q01DX009 (ip), vehicle: carboxymethylcellulose (CMC)): 126 % of control
T/C (dose: 50.0 mg/kg/injection, schedule: Q01DX001 (ip), vehicle: Klucel (hydroxypropylcellulose) (HPC)): 126 % of control
T/C (dose: 75.0 mg/kg/injection, schedule: Q01DX001 (ip), vehicle: Klucel (hydroxypropylcellulose) (HPC)): 128 % of control
T/C (dose: 100.0 mg/kg/injection, schedule: Q01DX001 (ip), vehicle: carboxymethylcellulose (CMC)): 135 % of control
T/C (dose: 115.0 mg/kg/injection, schedule: Q01DX001 (ip), vehicle: Klucel (hydroxypropylcellulose) (HPC)): 133 and 140 % of control
T/C (dose: 145.0 mg/kg/injection, schedule: Q01DX001 (ip), vehicle: Klucel (hydroxypropylcellulose) (HPC)): 127 % of control
T/C (dose: 266.0 mg/kg/injection, schedule: Q01DX001 (ip), vehicle: carboxymethylcellulose (CMC)): 133 % of control
T/C [7]: 129 % of control

CC1=CCCC2(CCC3(C)CC32)C1(C)C (stereo unspecified)
survivor count (dose: 400.0 mg/kg/injection, schedule: Q01DX009 (ip), vehicle: acetone): 1 of 6

ClC12CCC(Cl)(CC1)CC2
survivor count (dose: 150.0 mg/kg/injection, schedule: Q01DX001 (ip), vehicle: acetone): 3 of 6
survivor count (dose: 300.0 mg/kg/injection, schedule: Q01DX001 (ip), vehicle: acetone): 0 of 6

O=C1C=CC(=O)N1c1cccc(N2C(=O)C=CC2=O)c1
survivor count (dose: 32.0 mg/kg/injection, schedule: Q04DX003 (ip), vehicle: saline): 0 of 6

CS(C)=O
survivor count (dose: 0.8 grams/kg/injection, schedule: Q03HX008 (ip), vehicle: saline): 2 of 10
survivor count (dose: 0.8 grams/kg/injection, schedule: Q03HX016 (ip), vehicle: saline): 3 of 10
survivor count (dose: 0.8 grams/kg/injection, schedule: Q03HX024 (ip), vehicle: saline): 6 of 10
survivor count (dose: 1000.0 mg/kg/injection, schedule: Q01DX Z (ip), vehicle: other): 6 of 6
survivor count (dose: 2000.0 mg/kg/injection, schedule: Q01DX Z (ip), vehicle: other): 6 of 6
survivor count (dose: 3.1 grams/kg/injection, schedule: Q03HX016 (ip), vehicle: saline): 10 of 10
survivor count (dose: 6.3 grams/kg/injection, schedule: Q03HX008 (ip), vehicle: saline): 0 of 10
survivor count (dose: 6.3 grams/kg/injection, schedule: Q03HX016 (ip), vehicle: saline): 0 of 10
survivor count (dose: 6.3 grams/kg/injection, schedule: Q03HX024 (ip), vehicle: saline): 0 of 10

CC1=NS(=O)(=O)NC(C)(C)C1
survivor count (dose: 200.0 mg/kg/injection, schedule: Q01DX001 (ip), vehicle: carboxymethylcellulose (CMC)): 0 of 4
survivor count (dose: 200.0 mg/kg/injection, schedule: Q01DX009 (ip), vehicle: Klucel (hydroxypropylcellulose) (HPC)): 2 of 6
survivor count [7]: 0 of 4
survivor count (dose: 400.0 mg/kg/injection, schedule: Q01DX009 (ip), vehicle: Klucel (hydroxypropylcellulose) (HPC)): 0 of 6

CN(C)CCOc1ccc(Cl)cc1Cc1ccccc1
survivor count (dose: 100.0 mg/kg/injection, schedule: Q01DX009 (ip), vehicle: saline): 6 of 6
survivor count (dose: 100.0 mg/kg/injection, schedule: Q04DX003 (ip), vehicle: saline): 3 of 4
survivor count (dose: 200.0 mg/kg/injection, schedule: Q01DX009 (ip), vehicle: saline): 0 of 6
survivor count (dose: 200.0 mg/kg/injection, schedule: Q04DX003 (ip), vehicle: saline): 0 of 4
survivor count [8]: 0 of 4

CN1CCC(O)(c2ccccc2)C(C(=O)c2ccccc2)C1 (stereo unspecified)
survivor count [6]: 1 of 6

O=[N+]([O-])c1cc(S(=O)(=O)F)ccc1S
survivor count [9]: 0 of 6

Cn1cnc([N+](=O)[O-])c1Cl
survivor count [8]: 1 of 6

CC(=O)Nc1ccc(S(=O)(=O)C2=CC(=O)c3ccccc3C2=O)cc1
survivor count [5]: 1 of 6
survivor count [6]: 0 of 6

Cc1coc(NS(=O)(=O)c2ccc(N=Nc3ccc(O)c4ncccc34)cc2)c1C
survivor count [6]: 3 of 6

O=C(N/N=C/C=C/c1ccccc1)[C@H](O)[C@@H](O)C(=O)N/N=C/C=C/c1ccccc1
survivor count (dose: 200.0 mg/kg/injection, schedule: Q01DX009 (ip), vehicle: acetone): 6 of 6

CCOC(=O)NCC(C)(CCN1CCCC1)c1cccc2ccccc12 (stereo unspecified)
survivor count (dose: 50.0 mg/kg/injection, schedule: Q01DX009 (ip), vehicle: saline with Tween-80): 6 of 6
survivor count (dose: 100.0 mg/kg/injection, schedule: Q04DX003 (ip), vehicle: Klucel (hydroxypropylcellulose) (HPC)): 6 of 6
survivor count (dose: 200.0 mg/kg/injection, schedule: Q04DX003 (ip), vehicle: Klucel (hydroxypropylcellulose) (HPC)): 2 of 6
survivor count [9]: 0 of 6
